Data on one substance can be found in paper PMC7992845.

Amino acid sequences for entries named in this document (tags omitted). Residues count along the entry.
UniProt P13473, residues 29-410: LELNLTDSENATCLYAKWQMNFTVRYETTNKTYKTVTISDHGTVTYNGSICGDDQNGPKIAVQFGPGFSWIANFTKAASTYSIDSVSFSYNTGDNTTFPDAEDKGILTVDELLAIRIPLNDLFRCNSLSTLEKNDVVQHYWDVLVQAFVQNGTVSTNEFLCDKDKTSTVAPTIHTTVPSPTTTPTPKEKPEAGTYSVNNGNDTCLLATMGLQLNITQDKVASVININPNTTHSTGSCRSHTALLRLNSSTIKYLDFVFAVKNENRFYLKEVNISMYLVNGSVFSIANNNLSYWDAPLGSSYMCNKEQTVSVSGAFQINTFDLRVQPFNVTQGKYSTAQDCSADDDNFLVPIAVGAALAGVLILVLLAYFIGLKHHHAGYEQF
UniProt P11142: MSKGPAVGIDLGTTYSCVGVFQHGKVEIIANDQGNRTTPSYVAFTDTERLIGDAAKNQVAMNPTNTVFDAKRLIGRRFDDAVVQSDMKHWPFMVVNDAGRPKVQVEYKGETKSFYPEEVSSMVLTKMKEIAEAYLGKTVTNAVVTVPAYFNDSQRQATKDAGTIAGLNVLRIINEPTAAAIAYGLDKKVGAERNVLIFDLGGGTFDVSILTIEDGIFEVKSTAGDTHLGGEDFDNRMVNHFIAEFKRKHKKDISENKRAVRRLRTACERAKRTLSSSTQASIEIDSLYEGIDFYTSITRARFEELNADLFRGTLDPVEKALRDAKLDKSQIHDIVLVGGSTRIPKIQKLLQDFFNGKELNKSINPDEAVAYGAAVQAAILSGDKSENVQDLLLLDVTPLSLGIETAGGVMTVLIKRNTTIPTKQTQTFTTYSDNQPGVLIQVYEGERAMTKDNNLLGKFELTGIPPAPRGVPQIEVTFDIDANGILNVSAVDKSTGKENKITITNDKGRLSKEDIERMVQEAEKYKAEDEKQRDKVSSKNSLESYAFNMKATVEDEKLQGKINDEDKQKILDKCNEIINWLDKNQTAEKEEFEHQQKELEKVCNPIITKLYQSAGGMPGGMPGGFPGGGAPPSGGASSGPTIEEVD
UniProt O75376: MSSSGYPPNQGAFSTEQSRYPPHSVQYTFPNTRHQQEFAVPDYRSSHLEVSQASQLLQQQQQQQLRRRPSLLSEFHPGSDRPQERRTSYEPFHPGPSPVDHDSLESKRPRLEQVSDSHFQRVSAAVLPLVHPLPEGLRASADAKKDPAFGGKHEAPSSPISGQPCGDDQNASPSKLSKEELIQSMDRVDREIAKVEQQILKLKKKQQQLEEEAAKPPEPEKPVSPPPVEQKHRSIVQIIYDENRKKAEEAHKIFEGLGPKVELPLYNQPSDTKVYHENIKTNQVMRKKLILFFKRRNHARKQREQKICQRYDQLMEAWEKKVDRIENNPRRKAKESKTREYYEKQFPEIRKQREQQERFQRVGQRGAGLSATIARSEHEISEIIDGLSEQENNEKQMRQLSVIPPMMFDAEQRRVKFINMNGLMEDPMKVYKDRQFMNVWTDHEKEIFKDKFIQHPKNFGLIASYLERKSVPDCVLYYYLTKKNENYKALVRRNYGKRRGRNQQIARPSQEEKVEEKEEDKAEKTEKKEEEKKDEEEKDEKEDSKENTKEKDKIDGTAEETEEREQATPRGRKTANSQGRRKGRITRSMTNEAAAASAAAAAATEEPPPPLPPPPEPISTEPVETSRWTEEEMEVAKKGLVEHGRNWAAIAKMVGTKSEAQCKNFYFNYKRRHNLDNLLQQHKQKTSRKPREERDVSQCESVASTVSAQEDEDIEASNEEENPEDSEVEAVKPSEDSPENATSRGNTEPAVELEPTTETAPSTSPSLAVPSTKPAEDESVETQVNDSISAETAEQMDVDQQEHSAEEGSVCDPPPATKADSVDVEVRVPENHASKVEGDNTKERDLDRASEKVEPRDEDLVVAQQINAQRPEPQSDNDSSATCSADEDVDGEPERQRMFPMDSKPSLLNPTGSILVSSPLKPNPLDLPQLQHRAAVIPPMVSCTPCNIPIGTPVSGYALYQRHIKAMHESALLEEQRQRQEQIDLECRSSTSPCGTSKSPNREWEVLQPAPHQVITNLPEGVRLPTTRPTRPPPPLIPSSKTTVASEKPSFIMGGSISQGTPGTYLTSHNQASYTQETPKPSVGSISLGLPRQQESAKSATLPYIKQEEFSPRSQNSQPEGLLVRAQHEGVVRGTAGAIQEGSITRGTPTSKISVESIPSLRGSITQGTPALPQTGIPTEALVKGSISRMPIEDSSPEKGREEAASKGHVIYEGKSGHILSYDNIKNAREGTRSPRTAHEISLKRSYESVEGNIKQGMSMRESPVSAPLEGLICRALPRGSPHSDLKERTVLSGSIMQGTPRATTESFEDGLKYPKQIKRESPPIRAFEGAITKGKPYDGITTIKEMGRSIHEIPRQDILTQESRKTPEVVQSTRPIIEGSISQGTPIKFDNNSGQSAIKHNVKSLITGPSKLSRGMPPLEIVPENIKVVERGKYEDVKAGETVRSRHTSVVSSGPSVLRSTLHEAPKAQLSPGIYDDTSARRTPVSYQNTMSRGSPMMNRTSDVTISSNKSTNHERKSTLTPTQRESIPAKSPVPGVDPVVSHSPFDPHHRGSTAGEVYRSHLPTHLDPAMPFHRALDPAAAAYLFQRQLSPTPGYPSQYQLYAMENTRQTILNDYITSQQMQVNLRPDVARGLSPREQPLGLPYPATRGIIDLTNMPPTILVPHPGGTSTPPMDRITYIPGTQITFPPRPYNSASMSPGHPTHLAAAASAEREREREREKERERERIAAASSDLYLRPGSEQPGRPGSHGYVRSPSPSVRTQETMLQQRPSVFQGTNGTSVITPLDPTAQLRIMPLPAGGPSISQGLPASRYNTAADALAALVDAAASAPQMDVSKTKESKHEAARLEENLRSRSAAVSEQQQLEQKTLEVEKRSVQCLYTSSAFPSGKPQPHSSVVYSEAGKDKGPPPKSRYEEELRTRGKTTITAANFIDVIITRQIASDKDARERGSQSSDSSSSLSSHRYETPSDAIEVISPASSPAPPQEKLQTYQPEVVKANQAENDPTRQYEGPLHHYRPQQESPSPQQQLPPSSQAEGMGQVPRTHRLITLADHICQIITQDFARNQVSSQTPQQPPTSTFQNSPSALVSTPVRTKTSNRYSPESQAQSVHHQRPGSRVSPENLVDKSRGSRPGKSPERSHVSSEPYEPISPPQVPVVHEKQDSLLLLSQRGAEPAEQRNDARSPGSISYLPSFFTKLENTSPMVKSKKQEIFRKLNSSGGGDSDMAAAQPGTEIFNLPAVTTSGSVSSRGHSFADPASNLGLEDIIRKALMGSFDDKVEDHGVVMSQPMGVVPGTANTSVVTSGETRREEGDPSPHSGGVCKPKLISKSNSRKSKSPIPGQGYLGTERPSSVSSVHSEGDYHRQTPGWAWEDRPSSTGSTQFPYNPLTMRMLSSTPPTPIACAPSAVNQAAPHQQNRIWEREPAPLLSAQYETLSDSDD

No constants are given. Whether binding was seen depends on the method and setting. In cells and extracts the contact can be indirect. Some entries that bind do so weakly or less than the wild type.

Assay [1] concerns the target Lysosome-associated membrane protein type 2A (LAMP-2A) (human (endogenous in U87-MG)) (UniProt P13473). Nature of the assay: co-IP; U87-MG lysate (20 mM Tris pH 7.5, 150 mM NaCl, 1% Triton X-100, 1 mM EDTA, protease inhibitors); precipitated with anti-LAMP-2A or anti-Hsc70 antibody (IgG as control) and Protein G-agarose, overnight at 4 °C; N-CoR detected by western blot. For orientation: A western blot detects proteins with antibodies after separation by electrophoresis.

Assay [2] concerns the target Heat shock cognate 71 kDa protein (Hsc70) (human (endogenous in U87-MG)) (UniProt P11142). The assay is described as above.

With “Nuclear receptor co-repressor (N-CoR) (from UniProt O75376 1-2440)”, the binding result in assay [1] and in assay [2] was “binds” in each case.
